{"source": "patent US6537267B1", "about": "“Method for chronic catheterization of the common bile duct of a laboratory rat” (priority 2001, dated 2003)", "origin": "cited, not measured here", "test_system": "rats", "conditions": "exogenous dexamethasone, cited from earlier work", "note": "At least one compound was matched to its structure with a doubt left."}
{"smiles": "C[C@@H]1C[C@H]2[C@@H]3CCC4=CC(=O)C=C[C@]4(C)[C@@]3(F)[C@@H](O)C[C@]2(C)[C@@]1(O)C(=O)CO", "note": "[dexamethasone]", "values": [{"measurement": "bile flow rate", "setting": "endotoxin", "value": "remains unaffected"}, {"measurement": "effect on endotoxin-induced hepatic changes (mrp2, mRNA, anionic dye excretion)", "value": "inhibited the endotoxin-induced translocation of mrp2, the reduction of mRNA, and the excretion of anionic dye"}]}
